Test results published in PubChem BioAssay AID1347076 (National Center for Advancing Translational Sciences (NCATS), 2019).
Out of some 400,000 compounds screened, about 13,000 (3.2%) were called active. The inconclusive results got no clear call from the source; some entries with a clear call stand among them for comparison. Calls come from the whole dose curve; as a rule, active = well fitted cell-killing curve with a large enough effect; inconclusive = small, poorly fitted or top-dose-only effect, or effect the other way; inactive = flat fitted curve, though single readings scatter. Potencies beside an inconclusive call are fits to weak or partial responses and may not hold up.

experiment: qHTS assay for MDR1-selective chemotherapeutics: Primary screen using the drug-selected MDR subline cells KB-V1; conditions: KB-V1 MDR cells viability, CellTiter-Glo, 72 h; activity change, negative = cytotoxicity: at 46.1 µM (top of the series); note: nearly all actives have a fitted effect of over 60% in size
How it was run: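 In this primary screen, KB-V1 cells overexpressing P-gp are incubated with library compounds (lowest to highest concentration) for 72 h at 37 degrees C before a luminescent ATP viability read.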
% is set by controls: 0 for no effect and ±100 for the full control effect; potency is the fitted concentration of half-maximal effect.

SMILES | activity change, negative = cytotoxicity | Potency
CC(=O)c1cc(-c2ccccc2)n(CC(=O)Nc2ccc(C)cc2C)c1C | inactive: -2.4% | –
FC(F)Oc1ccc(NC(=S)N2CCN(Cc3ccccc3)CC2)cc1 | – | inconclusive: 23.1 µM [cytotoxic, partial curve]
O=C(NNC(=O)C1CCN(S(=O)(=O)c2c(Cl)cccc2Cl)CC1)c1ccccc1O | – | active: 18.4 µM
COc1cc2c(NC3CCN(C(C)C)CC3)nc(N3CCCN(C)CC3)nc2cc1OCCCN1CCCC1 | – | inconclusive: 29.1 µM [rising, single point]
O=C(Cn1cnc2c(OCc3ccccc3)ncnc21)NCc1ccccn1 | inactive: -0.0005% | –
Cc1nn(-c2cccc(Cl)c2)c(Cl)c1/C=N/NC(=O)c1cccs1 | – | inconclusive: 5.17 µM [cytotoxic, full curve]
CC(C)n1ncc2c(C(=O)NCCc3ccc(F)cc3)cc(C3CC3)nc21 | – | inconclusive: 7.31 µM [cytotoxic, partial curve]
Cc1ccc(-n2nc3c(=O)n(CC(=O)NC4CCCCC4)nc(C)c3c2C)cc1 | inactive: -1.1% | –
Cc1ccc(S(=O)(=O)c2cn(CC(=O)Nc3ccccc3)c3cc4c(cc3c2=O)OCO4)cc1 | – | inconclusive: 20.6 µM [rising, partial curve, poor fit]
Cc1ccc(-c2nc(CS(=O)CC(=O)O)c(C)o2)cc1 (stereo not given) | – | inconclusive: 16.4 µM [cytotoxic, single point]
CC(=O)c1cccc(NC(=O)c2cc(C(C)C)on2)c1 | inactive: 5.94% | –
Cc1cccc(C)c1N1CCN(C(=O)c2ccc3c(c2)OCO3)CC1 | – | inconclusive: 16.4 µM [cytotoxic, partial curve]
CC12COC3(C(=O)N4CCN(c5ccccn5)CC4)CC1CCC32C (stereo not given) | – | inconclusive: 10.3 µM [cytotoxic, partial curve, poor fit]
COc1ccc(C(=O)O)cc1F | – | inconclusive: 18.4 µM [rising, single point]
CC(=O)c1c(C)[nH]c(C(=O)CN2C(=O)NC3(CCCCC3C)C2=O)c1C (stereo not given) | inactive: -2.1% | –
COc1cccc(OCc2cc(C3Nc4ccccc4C(=O)N3Cc3ccco3)ccc2OC)c1 (stereo not given) | – | active: 4.11 µM
O=S(=O)(c1ccc(OCC(O)CN2CCN(c3ccccc3Cl)CC2)cc1)N1CCOCC1 (stereo not given) | – | inconclusive: 18.4 µM [cytotoxic, partial curve, poor fit]
Cn1nc(C(=O)Nc2ccc(Br)cc2)cc1C(=O)Nc1ccc(Br)cc1 | – | inconclusive: 20.6 µM [rising, single point]
Cc1cccc(-c2ncc(CN3CCCC(CO)(Cc4cccc(Cl)c4)C3)cn2)c1 (stereo not given) | – | inconclusive: 9.2 µM [cytotoxic, partial curve, poor fit]
NC(=O)c1ccc2c(=O)c(O)c(-c3cc(Cl)c(N)c(Cl)c3)[nH]c2c1 | inactive: 1.5% | –
CCOc1cccc(/C=N/NC(=S)Nc2cc(S(=O)(=O)N3CCOCC3)ccc2N2CCOCC2)c1O | – | inconclusive: 2.06 µM [cytotoxic, full curve]
COc1ccc(-c2nc(SCc3ccc(C#N)cc3)[nH]c(=O)c2C#N)cc1 | – | inconclusive: 29.1 µM [rising, single point]
Clc1cccc(CNc2ccn3nc(-c4ccccc4)cc3n2)c1 | inactive: -2.65% | –
Cc1cccc(N2CCN(C(=O)c3ccc4c(c3)CCN4S(=O)(=O)c3ccccc3)CC2)c1C | – | inconclusive: 13 µM [cytotoxic, partial curve, poor fit]

SMILES | activity change, negative = cytotoxicity | Potency
CC(C)(C)Nc1nc(SCc2ccccc2)nc(N2CCOCC2)n1 | – | inconclusive: 20.6 µM [cytotoxic, single point]
COc1cc(-c2cc(=O)c3c(O)c(OC)c(OC)cc3o2)cc(OC)c1O | inactive: 0% | –
COc1ccc(-c2nnc(SCc3nnc(-c4ccc(Cl)cc4)o3)n2-c2ccccc2)cc1 | – | active: 3.66 µM
CC1=C(C(=O)OC2CCCC2)C(c2cccc(Cl)c2Cl)CC(=O)N1 (stereo not given) | – | inconclusive: 29.1 µM [cytotoxic, single point]
CC(C)c1nnc(NC(=O)c2ccc(N3C(=O)CCC3=O)cc2)s1 | inactive: 10.9% | –
O=C(CSc1nnc(Nc2ccccc2)s1)NC1CCS(=O)(=O)C1 (stereo not given) | – | inconclusive: 0.58 µM [rising, full curve, poor fit]
CC(=O)N(\C=C/C=C/C=C1\Sc2ccccc2C1=O)c1ccccc1 | – | inconclusive: 29.1 µM [cytotoxic, single point]
CC(CCc1ccc(O)cc1)NC(c1ccccc1)c1ccc(Cl)cc1 (stereo not given) | inactive: -29.4% | –
CC(Oc1ccc2ccccc2c1)C(=O)NNC(=S)NC(=O)c1ccco1 (stereo not given) | – | active: 3.66 µM
CCc1sc(N2C(=O)C3C4CCC(C4=C(C)C)C3C2=O)nc1-c1ccccc1 (stereo not given) | – | active: 11.6 µM
O=C(O)C1CCN(c2c([N+](=O)[O-])cc(C(F)(F)F)cc2[N+](=O)[O-])CC1 | inactive: -0.629% | –
Cc1ccc(C(=O)Nc2nccs2)cc1 | – | inconclusive: 29.1 µM [cytotoxic, single point]
C(=Nn1cnnc1)c1ccc2c(c1)CCC2 | – | inconclusive: 16.4 µM [cytotoxic, partial curve, poor fit]
CC(C)OCCCn1c(=N)c(C(N)=S)cc2c(=O)n3ccccc3nc21 | – | inconclusive: 18.4 µM [cytotoxic, partial curve]
O=C(c1cccc([N+](=O)[O-])c1)N1CCN(c2ccc(Cl)cc2)CC1 | – | inconclusive: 20.6 µM [cytotoxic, partial curve, poor fit]
Cc1cccc(NC(=O)c2nc[nH]c2C(=O)N[C@@H](Cc2ccccc2)C(=O)OCc2ccccc2)c1 | inactive: 14.2% | –
COc1ccc(Br)cc1CNC(=O)c1cc2c(=O)n(C)c3ccccc3c2s1 | – | inconclusive: 23.1 µM [rising, partial curve, poor fit]
Cc1[nH]c(=O)[nH]c(=S)c1C(=O)Nc1ccc(Cl)c(Cl)c1 | inactive: 19.4% | –
CC(C)C[C@@H](COCc1cccc(Cl)c1)N1CCN(C(=O)c2cccc(C(F)(F)F)c2)CCC1=O | – | inconclusive: 8.2 µM [cytotoxic, partial curve, poor fit]
CN(Cc1ccccc1C(F)(F)F)C(=O)C1CCC(=O)N(CC2CCCCC2)C1 (stereo not given) | – | inconclusive: 14.6 µM [cytotoxic, partial curve, poor fit]
CCOC(=O)c1cc(CC)sc1NC(=O)CSc1nc2ccccc2c(=O)n1Cc1ccco1 | – | inconclusive: 2.91 µM [cytotoxic, full curve]
Clc1ccc(SCNc2ccccc2Cl)cc1 | inactive: 1.63% | –
Nc1ncnc(Nc2ccccc2Oc2ccccc2)n1 | – | inconclusive: 20.6 µM [cytotoxic, partial curve, poor fit]
Clc1cccc2sc(-c3nnc(-c4ccccc4)o3)c(Cl)c12 | – | inconclusive: 18.4 µM [cytotoxic, single point]

Twelve entries from above, set out differently.
SMILES	activity change, negative = cytotoxicity	Potency
CC(C)(C)Nc1nc(SCc2ccccc2)nc(N2CCOCC2)n1	–	inconclusive: 20.6 µM [cytotoxic, single point]
COc1cc(-c2cc(=O)c3c(O)c(OC)c(OC)cc3o2)cc(OC)c1O	inactive: 0%	–
COc1ccc(-c2nnc(SCc3nnc(-c4ccc(Cl)cc4)o3)n2-c2ccccc2)cc1	–	active: 3.66 µM
CC1=C(C(=O)OC2CCCC2)C(c2cccc(Cl)c2Cl)CC(=O)N1 (stereo not given)	–	inconclusive: 29.1 µM [cytotoxic, single point]
CC(=O)N(\C=C/C=C/C=C1\Sc2ccccc2C1=O)c1ccccc1	–	inconclusive: 29.1 µM [cytotoxic, single point]
CC(Oc1ccc2ccccc2c1)C(=O)NNC(=S)NC(=O)c1ccco1 (stereo not given)	–	active: 3.66 µM
O=C(O)C1CCN(c2c([N+](=O)[O-])cc(C(F)(F)F)cc2[N+](=O)[O-])CC1	inactive: -0.629%	–
C(=Nn1cnnc1)c1ccc2c(c1)CCC2	–	inconclusive: 16.4 µM [cytotoxic, partial curve, poor fit]
O=C(c1cccc([N+](=O)[O-])c1)N1CCN(c2ccc(Cl)cc2)CC1	–	inconclusive: 20.6 µM [cytotoxic, partial curve, poor fit]
Cc1cccc(NC(=O)c2nc[nH]c2C(=O)N[C@@H](Cc2ccccc2)C(=O)OCc2ccccc2)c1	inactive: 14.2%	–
Nc1ncnc(Nc2ccccc2Oc2ccccc2)n1	–	inconclusive: 20.6 µM [cytotoxic, partial curve, poor fit]
Clc1cccc2sc(-c3nnc(-c4ccccc4)o3)c(Cl)c12	–	inconclusive: 18.4 µM [cytotoxic, single point]

Next compounds.

SMILES | activity change, negative = cytotoxicity | Potency
CC(C)CC(=O)N(Cc1ccccc1)S(=O)(=O)c1ccc2c(c1)oc(=O)n2C | inactive: -15.4% | –
O=C(CCN1C(=O)S/C(=C/c2ccccc2)C1=O)Nc1ccc(C(=O)O)c(O)c1 | – | inconclusive: 5.17 µM [rising, full curve]
CS(=O)(=O)N(CC(=O)N1CCN(c2ccc(F)cc2)CC1)c1cccc(Cl)c1 | – | active: 9.2 µM
COC(=O)c1ccc(/C=N/OCC(=O)NC2CCCC(C)C2C)cc1 (stereo not given) | inactive: -15.2% | –
Cc1ccc(/C=N/NC(=O)c2nn(C)cc2Cl)cc1 | – | inconclusive: 29.1 µM [cytotoxic, single point]
COc1ccc(C2CC(=O)C3=C(C2)Nc2ncnn2C3c2ccccc2)cc1 (stereo not given) | – | inconclusive: 16.4 µM [cytotoxic, single point]
Cn1c2ccccc2c2nnc(SCCN3CCOCC3)nc21 | inactive: -7.42% | –
O=C(CSc1nnc(NC(=O)c2c(F)cccc2F)s1)NC1CCCCC1 | inactive: 16.1% | –
COC(=O)c1nnn(-c2cc(Cl)cc(Cl)c2)c1C(=O)OC | inactive: 6.82% | –
COc1cccc(NC(=O)CN2C(=O)C3(SCC(=O)N3c3cc(C)cc(C)c3)c3ccccc32)c1 (stereo not given) | – | inconclusive: 18.4 µM [cytotoxic, single point]
CCOC(=O)/C=c1\s/c(=C\c2ccc3cc(OC)ccc3c2)c(=O)n1CC(=O)NCC1CCCO1 (stereo not given) | – | active: 18.4 µM
CC1(C(=O)NS(=O)(=O)c2ccc(Cl)cc2)CCN1C(=O)Cc1ccccc1Cl (stereo not given) | inactive: 4.97% | –
CN(C)c1ccc(C(=O)N2CCN(C(=O)C3CCCO3)CC2)cc1 (stereo not given) | – | inconclusive: 23.1 µM [rising, partial curve, poor fit]
COc1cc(-c2cc3nc(NCc4cccc(Cl)c4)ccn3n2)cc(OC)c1OC | – | inconclusive: 18.4 µM [cytotoxic, single point]
C=CCn1c(N)cc(=O)nc1SCC(=O)N1CCN(c2ccc(F)cc2)CC1 | inactive: 10% | –
CCOC(=O)Sc1nc2ncncc2[nH]1 | – | inconclusive: 23.1 µM [cytotoxic, single point]
COc1ccc2oc(=N)c(C(=O)Nc3ccc(Br)cc3)cc2c1 | – | inconclusive: 29.1 µM [cytotoxic, single point]
CN(C)c1ccc2nc3ccc(=O)cc-3sc2c1 | – | active: 16.4 µM
N#Cc1ccc(NC(=O)COCc2cc(-c3ccc(F)cc3)on2)cc1 | – | inconclusive: 29.1 µM [rising, single point]
Cc1ccc(/C=N/NC(=O)C[n+]2ccccc2)s1 | inactive: 6.19% | –
Cn1c(=O)c2ncn(CC(=O)Nc3cccc(-c4nc5ccccc5s4)c3)c2n(C)c1=O | – | inconclusive: 5.17 µM [cytotoxic, full curve]
CCc1ccc(CNC(=O)c2ccc(CS(=O)(=O)Cc3ccccc3C)o2)cc1 | – | inconclusive: 18.4 µM [cytotoxic, single point]
